Experiment: acute lethality (LD50)
Details: in vivo; DS male mouse, 20-24 g
Excerpt: *^3 test animal: DS male mouse, 20-24 g of body weight

SMILES: CN1C(=O)CN=C(c2ccccc2)c2cc(Cl)ccc21 [diazepam, reference compound]
- LD50: > 1000 mg/kg
